Test results from patent US6803224B2, “Regulated expression of cloned genes using a cascade genetic circuit” (priority 2000, dated 2004).
Some results were stated once for a whole list of compounds, not compound by compound. For at least one compound, name, drawing or mass did not settle the structure.

Tested on: nahR/Psal::xylS2/Pm
Format: cell-based, E. coli
Settings: cascade circuit, 5 hours at 30° C.
Excerpt: This example illustrates how the effector molecules NahR and XylS2 can synergistically amplify gene expression when integrated properly into a cascade genetic circuit.

Row | Compound | increase of β-galactosidase production in comparison to salicylate
1 | O=C(O)c1cc(Cl)ccc1O [5-Chloro-salicylate] | at least 10%
2 | Nc1ccccc1C(=O)O [Antranilate] | at least 10%
